In PMC8942261:
Results are given in words; binding and its absence hold for the method and conditions named. Binding seen in cells or lysates may run through a third protein. Some results given as binding are weak or reduced against the parent protein; the word gives no strength.

Protein sequences, listed by entry. Tags and fused reporters are not part of them.
UniProt P03182: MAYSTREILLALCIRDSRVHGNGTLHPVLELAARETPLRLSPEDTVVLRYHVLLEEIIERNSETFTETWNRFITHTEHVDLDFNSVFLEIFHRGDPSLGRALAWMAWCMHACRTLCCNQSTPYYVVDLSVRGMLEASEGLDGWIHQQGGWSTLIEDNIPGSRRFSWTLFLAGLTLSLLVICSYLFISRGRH
UniProt Q5SQI0: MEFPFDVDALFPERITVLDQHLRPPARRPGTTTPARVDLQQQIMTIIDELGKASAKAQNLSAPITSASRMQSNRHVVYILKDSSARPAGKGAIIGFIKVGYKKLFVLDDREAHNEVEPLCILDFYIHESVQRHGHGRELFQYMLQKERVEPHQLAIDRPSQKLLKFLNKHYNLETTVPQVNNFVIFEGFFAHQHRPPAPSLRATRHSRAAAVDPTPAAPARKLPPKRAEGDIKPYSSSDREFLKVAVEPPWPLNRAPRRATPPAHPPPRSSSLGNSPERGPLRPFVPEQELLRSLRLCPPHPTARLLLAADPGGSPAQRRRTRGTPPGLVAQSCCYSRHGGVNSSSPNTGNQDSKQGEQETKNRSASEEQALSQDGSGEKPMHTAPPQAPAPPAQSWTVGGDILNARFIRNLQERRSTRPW

Target: BHRF1-HA (Epstein-Barr virus-encoded BHRF1 protein, HA-tagged) (Epstein-Barr virus) (UniProt P03182)
Test: co-IP; HeLa cells co-transfected with BHRF1-HA and GFP-ATAT1 for 24 h; lysed at 4°C in RIPA buffer; BHRF1 precipitated with rabbit anti-HA or ATAT1 with mouse anti-GFP overnight at 4°C; Protein A or G beads, washed three times with RIPA buffer; blots with anti-GFP and anti-HA

## GFP-ATAT1 (GFP-tagged alpha-tubulin N-acetyltransferase 1) (from UniProt Q5SQI0 1-421) (enzyme)
  binding: binds
